Legend:
Assay in all cases: SRB antiproliferation assay
Type in all cases: cell-based
A549 = conditions: Homo sapiens, 48 h, read-out: Antiproliferative activity (IC50) A549
Description: (§1) To determine the ability of test compounds to affect the growth of adherent cells, the following cancer cell lines were used: A549 (Bioresource Collection and Research Centre, Taiwan, 60074), HepG2 (BCRC 60025), MCF7 (BCRC 60436), U87MG (BCRC 60360), and H2228 (ATCC CRL-5935). Cells were maintained at 37 °C in a 5% CO2, humidified incubator. Culture media were: RPMI-1640 for A549 and H2228 cells; Dulbecco’s modified Eagle’s medium for HepG2 and MCF7 cells; 90% Minimum essential medium Eagle with 2 mM L-glutamine and Earle’s BSS, 1.5 g/L sodium bicarbonate, 0.1 mM non-essential amino acids, 1.0 mM sodium pyruvate, and 10% foetal bovine serum for U87MG cells. Cells were seeded in 96-well plates at a density of 5 × 10^3 cells/well with appropriate control medium. They were treated for 48 h with test compounds at various concentration in medium containing 5% serum. Antiproliferative activity was determined by sulforhodamine B (SRB) assay. Cells treated with vehicle were used as control (100%). Antiproliferative activity was reported as percentage decrease of optical density at 510 nm for the SRB-protein complex. IC50 values were obtained on the basis of relative antiproliferation under different concentrations of compounds by regression analysis. Cell viability of compound combination was performed using MTS assay using CellTiter 96® AQueous One Solution Cell Proliferation Assay kit (Promega). In brief, 1000 cells were seeded in each well in 96-well plate and incubated for overnight. DMSO or indicated compounds were added and incubated for another 3 days. 20 µL of MTS reagent was added and incubated for 2 h followed by recording the optical density at 490 nm.

H2228 = conditions: Homo sapiens, NCI-H2228, 48 h, ALK-addicted cells, read-out: Antiproliferative activity (IC50) H2228
Description: as §1

HepG2 = conditions: Homo sapiens, 48 h, read-out: Antiproliferative activity (IC50) HepG2
Description: as §1

MCF7 = conditions: Homo sapiens, 48 h, read-out: Antiproliferative activity (IC50) MCF7
Description: as §1

U87MG = conditions: Homo sapiens, U-87 MG, 48 h, read-out: Antiproliferative activity (IC50) U87MG
Description: as §1

IC50 (A549): 3.42 ± 0.51 µM
IC50 (H2228): 3.1 ± 0.57 µM
IC50 (HepG2): 3.38 ± 0.56 µM
IC50 (MCF7): 4.17 ± 0.43 µM
IC50 (U87MG): 2.09 ± 0.72 µM
SMILES: O=C(CCCCCCC(=O)Nc1ccccc1)NO [SAHA, reference compound]

— PMC10930102 (Journal of Enzyme Inhibition and Medicinal Chemistry, 2024)
